Laboratory results: US20070280957A1, “Change of the Load State of Mhc Molecules” (priority 2004, published 2007)
Some results were stated once for a whole list of compounds, not compound by compound.

Molecular target: T1, soluble HLA-DR1 (DRA1*0101, DRB1*0101) (Homo sapiens, UniProt P01903+P01911, A100R/D57E/F55L/F60I/F76Y/I96L/L162R/M171V/P40L/Q125E/R42F/V115G/Y59C)
T1 construct: shortened α- and […]-chains without the cytoplasmatic and transmembrane portion of the MHC molecule; made in house; host or cells: S2 insect cells
Assay: Loading of empty soluble HLA-DR1 with biotinylated HA306-318 peptide, sandwich ELISA
Format: biochemical
Details: compared with pCP; test not specified
Description: In order to monitor catalysis of the loading of HLA-DR molecules by compounds of formulae I, IA, II, III and IV1 to IV3, empty, soluble DR molecules were incubated with biotinylated, high-affinity peptide, and these were then detected in a sandwich ELISA for the MHC complexes.
All the batches were then adjusted to a final volume of 10 μl with 2% BSA-PO4^3− buffer (in the case of HLA-DR1 only with PO4^3− buffer). The reaction was started by incubation at 37° C. in a thermocycler. After 40 minutes, the incubation was terminated and the loading reaction was stopped by storage on ice and addition of 50 μl of ice-cold 1% BSA-PBS.
The detection of bound peptide was carried out by means of a sandwich ELISA. […] After washing for a further eight times, 100 μl/well of fluorescence-activated solution (enhancer) were then added and the signal was measured by means of a Victor^2-multilabelcounter (Wallac Oy) at an excitation wavelength of 340 nm and an emission wavelength of 615 nm in time-resolving mode.
The following experiment was therefore carried out. […] The reaction mixtures were then incubated for 40 minutes as already described and the load was measured in a sandwich ELISA.
The resulting load was then determined in an ELISA using biotinylated peptide (see FIG. 1). […]

Oc1ccc(-c2ccccc2)cc1 [4-HBP, 4-hydroxybiphenyl]
concentrations at which an increase in the load is catalysed: above 0.025 mM
